# Assay results as given in the supplement of paper PMC8728848.
# The other results are listed elsewhere or left out.
# B1: SJCP1084 (Schistosoma japonicum) (protein)
# chain: MRIINLVIISTALLLINLLQTKSQANGEDTKNGTPDDPGLTKSTELKVEVQALLKDKKTNMRVKWNENLLDNTKPEYHNLRDEACELLLQIVRSVVPLSQDDGECKDVTFTKYVVGTKDGAVNVKLTITFKDSVAINQKPMDLKLKLENDFKNLQSESTLKATKPTFTVKVEKRLIPISKPQTTPPTTAKNDASKENVGDIGGEDSTVPTAAPATAASANEEKDEGDKDNKDSQHPNVLTSNVNDRNLIIALVALMILAIGVALTAAVKQR
# Columns and labels:
# Experiment in all cases: glycan array binding signal (z-score within array); higher = stronger binding
# Conditions in all cases: glycan notation: IUPAC condensed, linker removed
# Glc(b1-6)Glc = target: Glc(b1-6)Glc
# Method in brief: (§1)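 Arrays were curated from the Consortium for Functional Glycomics database, 3228 in total, and kept only where the protein sequence was available. Binding is expressed as a within-array Z-score. This score was averaged across arrays of the same protein sequence at different concentrations or buffers and across linkers, and negative values can be read as non-binding.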
# GlcA(b1-3)Gal = target: GlcA(b1-3)Gal
# Method in brief: as §1
# GlcA(b1-3)GlcNAc = target: GlcA(b1-3)GlcNAc
# Method in brief: as §1
# GlcA(b1-6)Gal = target: GlcA(b1-6)Gal
# Method in brief: as §1
# [1] = target: GlcA3S(b1-3)Gal(b1-4)GlcNAc(b1-2)Man
# Method in brief: as §1
# [2] = target: GlcA3S(b1-3)Gal(b1-4)GlcNAc(b1-3)Gal(b1-4)Glc
# Method in brief: as §1
# [3] = target: GlcNAc(a1-3)Gal(b1-4)GlcNAc
# Method in brief: as §1
# [4] = target: GlcNAc(a1-4)Gal(b1-3)GlcNAc
# Method in brief: as §1
# [5] = target: GlcNAc(a1-4)Gal(b1-4)GalNAc
# Method in brief: as §1
# [6] = target: GlcNAc(a1-4)Gal(b1-4)GlcNAc
# Method in brief: as §1
# [7] = target: GlcNAc(a1-4)Gal(b1-4)GlcNAc(b1-3)Gal(b1-4)Glc
# Method in brief: as §1
# [8] = target: GlcNAc(a1-4)Gal(b1-4)GlcNAc(b1-3)Gal(b1-4)GlcNAc
# Method in brief: as §1
# [9] = target: GlcNAc(a1-4)Gal(b1-4)GlcNAc(b1-3)Gal(b1-4)GlcNAc(b1-3)Gal(b1-4)GlcNAc
# Method in brief: as §1
# [10] = target: GlcNAc(a1-4)Gal(b1-4)GlcNAc(b1-3)Gal(b1-4)[Fuc(a1-3)]GlcNAc(b1-3)Gal(b1-4)[Fuc(a1-3)]GlcNAc
# Method in brief: as §1
# [11] = target: GlcNAc(a1-6)Gal(b1-4)GlcNAc
# Method in brief: as §1
# [12] = target: GlcNAc(b1-2)Gal(b1-3)GalNAc
# Method in brief: as §1
# [13] = target: GlcNAc(b1-2)Man(a1-3)[GlcNAc(b1-2)Man(a1-6)]Man(b1-4)GlcNAc(b1-4)GlcNAc
# Method in brief: as §1
# [14] = target: GlcNAc(b1-2)Man(a1-3)[GlcNAc(b1-2)Man(a1-6)]Man(b1-4)GlcNAc(b1-4)[Fuc(a1-6)]GlcNAc
# Method in brief: as §1
# [15] = target: GlcNAc(b1-2)Man(a1-3)[GlcNAc(b1-4)][GlcNAc(b1-2)Man(a1-6)]Man(b1-4)GlcNAc(b1-4)GlcNAc
# Method in brief: as §1
# [16] = target: GlcNAc(b1-2)Man(a1-3)[GlcNAc(b1-4)][GlcNAc(b1-2)Man(a1-6)]Man(b1-4)GlcNAc(b1-4)[Fuc(a1-6)]GlcNAc
# Method in brief: as §1
# [17] = target: GlcNAc(b1-2)[GlcNAc(b1-4)]Man(a1-3)[GlcNAc(b1-2)Man(a1-6)]Man(b1-4)GlcNAc(b1-4)GlcNAc
# Method in brief: as §1
# [18] = target: GlcNAc(b1-2)[GlcNAc(b1-4)]Man(a1-3)[GlcNAc(b1-4)][GlcNAc(b1-2)Man(a1-6)]Man(b1-4)GlcNAc(b1-4)GlcNAc
# Method in brief: as §1
# [19] = target: GlcNAc(b1-2)[GlcNAc(b1-4)]Man(a1-3)[GlcNAc(b1-4)][GlcNAc(b1-2)[GlcNAc(b1-6)]Man(a1-6)]Man(b1-4)GlcNAc(b1-4)GlcNAc
# Method in brief: as §1
# [20] = target: GlcNAc(b1-2)[GlcNAc(b1-4)]Man(a1-3)[GlcNAc(b1-4)][GlcNAc(b1-2)[GlcNAc(b1-6)]Man(a1-6)]Man(b1-4)GlcNAc(b1-4)[Fuc(a1-6)]GlcNAc
# Method in brief: as §1
# [21] = target: GlcNAc(b1-2)[GlcNAc(b1-6)]Man(a1-6)[GlcNAc(b1-2)Man(a1-3)]Man(b1-4)GlcNAc(b1-4)GlcNAc
# Method in brief: as §1
# [22] = target: GlcNAc(b1-2)[GlcNAc(b1-6)]Man(a1-6)[GlcNAc(b1-2)Man(a1-3)]Man(b1-4)GlcNAc(b1-4)[Fuc(a1-6)]GlcNAc
# Method in brief: as §1
# [23] = target: GlcNAc(b1-2)[GlcNAc(b1-6)]Man(a1-6)[GlcNAc(b1-4)][GlcNAc(b1-2)Man(a1-3)]Man(b1-4)GlcNAc(b1-4)GlcNAc
# Method in brief: as §1
# GlcNAc(b1-3)Fuc = target: GlcNAc(b1-3)Fuc
# Method in brief: as §1
# GlcNAc(b1-3)Gal = target: GlcNAc(b1-3)Gal
# Method in brief: as §1
# [24] = target: GlcNAc(b1-3)Gal(b1-3)GalNAc
# Method in brief: as §1
# GlcNAc(b1-3)Gal(b1-4)Glc = target: GlcNAc(b1-3)Gal(b1-4)Glc
# Method in brief: as §1
# [25] = target: GlcNAc(b1-3)Gal(b1-4)GlcNAc
# Method in brief: as §1
# [26] = target: GlcNAc(b1-3)Gal(b1-4)GlcNAc(b1-2)Man(a1-3)[GlcNAc(b1-3)Gal(b1-4)GlcNAc(b1-2)Man(a1-6)]Man(b1-4)GlcNAc(b1-4)GlcNAc
# Method in brief: as §1
# [27] = target: GlcNAc(b1-3)Gal(b1-4)GlcNAc(b1-2)Man(a1-3)[GlcNAc(b1-3)Gal(b1-4)GlcNAc(b1-2)Man(a1-6)]Man(b1-4)GlcNAc(b1-4)[Fuc(a1-6)]GlcNAc
# Method in brief: as §1
# [28] = target: GlcNAc(b1-3)Gal(b1-4)GlcNAc(b1-2)[GlcNAc(b1-3)Gal(b1-4)GlcNAc(b1-6)]Man(a1-6)[GlcNAc(b1-3)Gal(b1-4)GlcNAc(b1-2)Man(a1-3)]Man(b1-4)GlcNAc(b1-4)GlcNAc
# Method in brief: as §1
# [29] = target: GlcNAc(b1-3)Gal(b1-4)GlcNAc(b1-3)Gal(b1-4)GlcNAc
# Method in brief: as §1
# [30] = target: GlcNAc(b1-3)Gal(b1-4)GlcNAc(b1-3)Gal(b1-4)GlcNAc(b1-2)Man(a1-3)[GlcNAc(b1-3)Gal(b1-4)GlcNAc(b1-3)Gal(b1-4)GlcNAc(b1-2)Man(a1-6)]Man(b1-4)GlcNAc(b1-4)GlcNAc
# Method in brief: as §1
binder,measurement,setting,value
B1,glycan array binding signal (z-score),Glc(b1-6)Glc,-0.429
same,glycan array binding signal (z-score),GlcA(b1-3)Gal,0.134
same,glycan array binding signal (z-score),GlcA(b1-3)GlcNAc,-0.799
same,glycan array binding signal (z-score),GlcA(b1-6)Gal,-1.1
same,glycan array binding signal (z-score),[1],-1.16
same,glycan array binding signal (z-score),[2],-2.01
same,glycan array binding signal (z-score),[3],-1.19
same,glycan array binding signal (z-score),[4],-0.746
same,glycan array binding signal (z-score),[5],-1.11
same,glycan array binding signal (z-score),[6],0.089
same,glycan array binding signal (z-score),[7],0.199
same,glycan array binding signal (z-score),[8],-0.366
same,glycan array binding signal (z-score),[9],0.69
same,glycan array binding signal (z-score),[10],2.09
same,glycan array binding signal (z-score),[11],1.35
same,glycan array binding signal (z-score),[12],0.328
same,glycan array binding signal (z-score),[13],-0.46
same,glycan array binding signal (z-score),[14],-0.486
same,glycan array binding signal (z-score),[15],-1.44
same,glycan array binding signal (z-score),[16],-0.448
same,glycan array binding signal (z-score),[17],-0.067
same,glycan array binding signal (z-score),[18],0.9
same,glycan array binding signal (z-score),[19],-1.41
same,glycan array binding signal (z-score),[20],-0.318
same,glycan array binding signal (z-score),[21],0.15
same,glycan array binding signal (z-score),[22],0.755
same,glycan array binding signal (z-score),[23],0.364
same,glycan array binding signal (z-score),GlcNAc(b1-3)Fuc,-0.021
same,glycan array binding signal (z-score),GlcNAc(b1-3)Gal,-1.39
same,glycan array binding signal (z-score),[24],-0.001
same,glycan array binding signal (z-score),GlcNAc(b1-3)Gal(b1-4)Glc,-0.447
same,glycan array binding signal (z-score),[25],0.123
same,glycan array binding signal (z-score),[26],-0.62
same,glycan array binding signal (z-score),[27],1.02
same,glycan array binding signal (z-score),[28],-0.639
same,glycan array binding signal (z-score),[29],-0.425
same,glycan array binding signal (z-score),[30],1.03

# Retrieved one by one from the entries so far, 2 records:
binder,measurement,setting,value
B1,glycan array binding signal (z-score),[5],-1.11
same,glycan array binding signal (z-score),[3],-1.19
